# Out of some 340,000 compounds screened, about 170 (0.05%) were called active. The inconclusive results got no clear call from the source; some entries with a clear call stand among them for comparison. Calls come from the whole dose curve; as a rule, active = well fitted inhibition curve with a large enough effect in the signal ratio, with a control signal flat (not every such curve was filed as active); inconclusive = small, poorly fitted or top-dose-only effect, or effect the other way, or a change in a side signal; inactive = flat fitted curve, though single readings scatter; the % refers to the signal ratio. A potency beside an inconclusive call is a rough fit, not a confirmed value.
# Assay: qHTS Assay to Find Inhibitors of Chronic Active B-Cell Receptor Signaling;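 for activity change, negative = inhibition: plate controls were basal doxycycline-induced cells for no effect and cells given 10 µM MG132 for full effect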
# Details: ABC-DLBCL IkBa-CBG/CBR reporter, luminescence ratio (green luciferase fused to IkBa over red control in TMD8 lymphoma cells), 4 h; activity change, negative = inhibition: at 46.1 µM (top of the series) unless noted
# How it was run: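 Compounds up to 46 uM were incubated four hours with TMD8 cells whose green CBG68 luciferase is fused to IkappaBalpha; red CBR luminescence normalised the signal, and concentration-effect curves were fitted to fusion, red and ratio data.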
# Potency is the fitted concentration of half-maximal effect.
SMILES,Potency,"activity change, negative = inhibition"
CC(=O)Oc1ccc2ccc(=O)oc2c1,"inconclusive: 20 µM [falling, single point]",
Cc1ccc(Nc2nc(-c3ccccc3)cs2)nc1,,inconclusive: 230%
CC1CCCCN1C(=O)c1cc(Cl)ccc1[N+](=O)[O-] (configuration not stated),,inconclusive: 2%
CCCc1noc(-c2ccc(-c3ccccc3)cc2)n1,,inconclusive: 9.51%
CCNc1nnc(SCC(=O)c2c(N)n(C3CC3)c(=O)[nH]c2=O)s1,,inactive
Cc1cc(C)nc(NC(=O)/C=C/c2ccccc2Cl)c1,,inconclusive: -11.4%
COc1cccc(C2(O)CCN(CC(=O)NCC3CC3)CC2)c1,,inconclusive: 8.34%
CS(=O)(=O)c1ncc(Cl)c(C(=O)Nc2ccc(OC(F)F)cc2)n1,,inconclusive: 12.3%
Cc1cc(N)n(-c2ccccc2)n1,"inconclusive: 10 µM [falling, partial curve, poor fit]",
O=C(Nc1nccs1)c1ccc2c(=O)n3c(nc2c1)CCCCC3,,inconclusive: 9.99%
O=C(NC1CCN(Cc2ccc(F)cc2)CC1)c1ccccc1,,inactive
CCc1ccc(N=C2NC(=O)/C(=C/c3cc(OC)c(O)c(OC)c3)S2)cc1,,inactive
COc1ccc(C(C(=O)NCc2ccccc2)N(Cc2ccco2)C(=O)c2snc(C(N)=O)c2N)cc1 (configuration not stated),,inactive
O=C(Nc1ccc(F)cc1F)c1csc(-c2ccncc2)n1,,inconclusive: -9.03%
COc1ccc(NC(=O)COC(=O)CCc2nc3ccccc3c(=O)[nH]2)c(OC)c1,,inconclusive: -0.803%
Cc1cc(C(=O)CSc2nc3ccccc3n2C)c(C)n1C,"inconclusive: 11.6 µM [falling, partial curve]",
CCCCC(=O)NC(=S)Nc1ccccc1N1CCCCC1,,inactive
O=C(Cn1c(=O)c2cccn2c2ccc(F)cc21)NCCCN1CCN(c2ccccc2F)CC1,,inactive
N#C/C(=C\c1ccc(OCC(N)=O)cc1)C(=O)NC1CC1,,inconclusive: -1.53%

SMILES,Potency,"activity change, negative = inhibition"
O=C(Nc1ccccc1)C1=C[C@H](C2CCCCC2)C[C@H](OCc2ccc(CO)cc2)O1,,inconclusive: 2.32%
Cc1ccc(Cn2c(SCC(=O)C(C)(C)C)nc3ccsc3c2=O)cc1,,inactive
CCNC(=O)COc1ccc(/C=C2\COc3ccccc3C2=O)cc1OC,,inconclusive: 1.39%
Cc1c(C#N)c2ncn(Cc3ccccc3)c(=O)c2n1-c1ccccc1,,inconclusive: -6.74%
O=C(Nc1cccnc1)c1ccccc1-c1ccccc1,,inconclusive: 1.64%
CSC(=O)CC(=O)NC(=O)c1ccccc1,,inconclusive: -16.8%
O=C(O)CCCc1nc2ccccc2s1,,inconclusive: -0.232%
COc1ccccc1NC(=S)N(CCc1c(C)[nH]c2ccccc12)Cc1cccs1,,inconclusive: 0.0592%
CCOc1ccc(-n2nc3c(=O)n(CCN4CCCCC4)nc(C)c3c2C)cc1,,inactive
CCCCCCCCCC(=O)N1c2ccccc2NC(=O)C1CC(=O)Nc1ccc(C(=O)O)cc1 (configuration not stated),,inactive
CC(=O)Oc1ccc(N2C(=O)CC(N3CCOCC3)C2=O)cc1 (configuration not stated),,inconclusive: -12.3%
CC(C(=O)N1CCCC1)N(c1ccccc1)S(C)(=O)=O (configuration not stated),,inactive
CCN(CC(=O)Nc1cc(Cl)ccc1C)C(=O)C1CC(=O)N(Cc2ccccc2)C1 (configuration not stated),,inactive
CN1CCN(CCC(=O)Nc2ccccc2)CC1,,inactive
Cc1c(C(=O)Nc2ccc3c(c2)OCCO3)oc2ccc(Br)cc12,,inconclusive: 4.74%
O=C(CSc1nnc(SCc2ccc(Cl)cc2)s1)c1ccc2c(c1)OCO2,,inconclusive: 2.59%
CN1CCc2nc3sc(C(=O)Nc4ccccc4OC(F)(F)F)c(N)c3cc2C1,"inconclusive: 11.2 µM [rising, partial curve, poor fit]",
O=C(NCc1ccccc1)c1nc(S(=O)(=O)Cc2ccccc2)ncc1Cl,,inconclusive: 25.6%
CCCCNCCCOc1cccc(Cl)c1Cl,,inconclusive: -9.79%

# Random excerpt: five records from the list.
SMILES,Potency,"activity change, negative = inhibition"
COc1ccccc1NC(=S)N(CCc1c(C)[nH]c2ccccc12)Cc1cccs1,,inconclusive: 0.0592%
CN1CCN(CCC(=O)Nc2ccccc2)CC1,,inactive
CCCCCCCCCC(=O)N1c2ccccc2NC(=O)C1CC(=O)Nc1ccc(C(=O)O)cc1 (configuration not stated),,inactive
CC(=O)Oc1ccc(N2C(=O)CC(N3CCOCC3)C2=O)cc1 (configuration not stated),,inconclusive: -12.3%
CCN(CC(=O)Nc1cc(Cl)ccc1C)C(=O)C1CC(=O)N(Cc2ccccc2)C1 (configuration not stated),,inactive

# (further entries)

SMILES,Potency,"activity change, negative = inhibition"
Cc1cc(C(=O)N/N=C/c2ccc([N+](=O)[O-])o2)c(C)o1,,inconclusive: -11.7%
Cn1c(=O)n(CC(=O)Nc2ccccc2)c2ccccc21,,inactive
Cc1ccsc1/C=C/c1ccc2cccc(O)c2n1,"inconclusive: 18.4 µM [falling, partial curve]",
COc1ccccc1NC(=O)COC(=O)c1cc2c(s1)CCC2,,inactive
O=C(CSC1=NNC(c2ccccn2)S1)Nc1cccc(Cl)c1 (configuration not stated),,inactive
COc1cccc(-n2c(C)nn(CCOc3ccccc3)c2=O)c1,,inconclusive: 3.24%
O=C(NCCc1ccccc1)c1ccccc1F,"inconclusive: 22.4 µM [falling, single point]",
Cc1cccc(NC(=O)C(C)Oc2ccccc2C)n1 (configuration not stated),,inconclusive: 9.06%
COc1ccc(-c2cc(C(F)(F)F)nc(-n3cncn3)n2)cc1,,inactive
C/C(=N\Nc1nncc2ccccc12)c1ccc(Cl)c([N+](=O)[O-])c1,,inconclusive: -10.5%
COc1ccccc1N=Nc1c(O)[nH]c2ccc(Br)cc12,"inconclusive: 12.6 µM [falling, partial curve, poor fit]",
O=C(Nc1ccc(O)cc1)c1ccc2c(c1)C(=O)N(N1C(=O)c3ccccc3C1=O)C2=O,"inconclusive: 14.1 µM [rising, partial curve, poor fit]",
CC(C)(C)c1ccc(C(=O)NNc2cc(N3CCCCC3)nc(N3CCCCC3)n2)cc1,,inactive
CNC(=O)C(Sc1nc(C)nc2c1oc1ccccc12)C(C)=O (configuration not stated),"inconclusive: 7.31 µM [rising, partial curve, poor fit]",
CC1=C(C(N)=O)C(c2ccc(C)o2)C(C(N)=O)=C(C)N1,,inconclusive: 6.74%
CC[C@]12c3[nH]c4cc(CCC(=O)N(C)C)ccc4c3CCN1C(=O)[C@@H](CC(=O)NCCC1=CCCCC1)C[C@@H]2C(=O)N1CCN(C(=O)C2CC2)CC1,,inconclusive: 2.1%
Cc1cc(=O)[nH]c(N/N=C/c2c(C)nn(-c3ccccc3)c2C)n1,,inactive
Cc1cc2c(NCCc3ccccc3)ncnc2s1,,inconclusive: 10.8%
COc1ccc(C(O)(C(C)C)C(CN2CCOCC2)c2ccc(Cl)cc2)cc1 (configuration not stated),,inconclusive: -2.16%
